Paper PMC9601964

Biological target: T1, RihR (XRE-family regulator) (Azorhizobium caulinodans ORS571) (UniProt A8IKA5)
T1 sequence (looked up): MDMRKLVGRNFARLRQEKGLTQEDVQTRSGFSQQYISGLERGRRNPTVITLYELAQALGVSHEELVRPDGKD
Experiment: EMSA
Conditions: 50 ng DNA, increasing RihR, poly(dI-dC); 50 mM Tris-HCl pH 8.3, 0.25 M KCl, 2.5 mM DTT, 5 mM MgCl2, 0.25 mg/mL BSA, 0.05 mg/mL poly(dI-dC), 2.5 mM EDTA, 1% glycerol; 20 uL, 20 min, room temperature; recombinant protein; residues 1-72; protein details: N-terminal 6xHis (pET28a); probe letters rebuilt from the primers and the genome

Sequence: ACATCTGGCTCTGCCGAACCCAAAAAAGCAAAAACGCCCCGGAGGGCGTTTGCTCGATATTCAATTTTCGAGAAACTGGAGCGGGCGAAGGGATTCGAACCCTCGACCCCAACCTTGGCAAGGTGCCCGAGAGCCATTCGCCGCAATATCCGATCCTTCGCCGCAGTTGTAAAAAGCAATACAAAGCAGATATTTATATCGTGCGCGCTCCGCCGATCGTCGCCGCCCAGACGCCACGATTTGATTTCGGATGCTTCCATTCGGCTTCCGGAAGCGTTAAAATAGGGAGAATGGAAGCAAATTTCATATAAGCGTTTGGAATAAAATGGAAAAGCTCACAAAGCGCCGTTTGGA (double strand) [intC promoter fragment]
- binding result: binds

Where a protein sequence is shown, tags need not be part of it.
